The exact form of at least one protein or probe is not confirmed.
What follows are sequences tested against DGCR8 Rhed domain (RNA-binding heme domain, heme-bound dimer) (Homo sapiens) (UniProt Q8WYQ5) (assay: EMSA). Conditions: range over all eight RNAs; 150 mM NaCl, 20 mM Tris pH 8.0, tRNA, heparin, RT; purified recombinant protein; label: 32P (alpha-32P-ATP body label).

Chains of the proteins cited; added tags and fusions are not shown. Residues count along the entry.
UniProt Q8WYQ5, 285-478: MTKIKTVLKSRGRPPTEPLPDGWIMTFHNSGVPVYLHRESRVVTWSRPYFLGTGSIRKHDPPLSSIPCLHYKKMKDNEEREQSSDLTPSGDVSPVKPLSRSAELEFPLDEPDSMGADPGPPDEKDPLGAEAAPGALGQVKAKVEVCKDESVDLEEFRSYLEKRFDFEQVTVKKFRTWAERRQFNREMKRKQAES

Binding result, binds:
GGCAGUGUAUUGCUAGCGGCUGUUAAUGAUUUUAACAGUUGCUAGUUGCACUCC [pri-miR-449c apical stem-loop fragment]
GGCCCGGGUUAUACCUGAUGCUCACGUAUAAGACGAGCC [pri-miR-208a apical stem-loop fragment]
GGUAUGCAUAUACUUCUUUGAGGAUCUGGCCUAAAGAGGUAUAGGGCAUGCC [pri-miR-202 apical stem-loop fragment]
GGUCUCUUCCCAGAUUUCCCAAAGUUGGGAAAAGCUGGGUUGAGACC [pri-miR-320b-2 apical stem-loop fragment]
GGUGACUCCAGGUCCUGUGUGUUACCUAGAAAUAAGCACUGGACUUGGAGUCACC [pri-miR-378a apical stem-loop fragment]
GGUUCACGCAUUUGCUUUACUUGCAAUGAUUAUACAACC [pri-miR-300 apical stem-loop fragment]
GGUUUGCAUUUCAGCGUAUAUAUGUAUAUGUGGCUGUGCAAAUCC [pri-miR-19b-2 apical stem-loop fragment]

— patent publication US20230002825
